Test results taken from the supplement of paper PMC10849652.
The list shows a part of the results.

The chains behind the UniProt entries cited, without tags or fusion partners. Where a name states a change or a piece, a line headed by the entry shows the natural chain unless it says otherwise.
UniProt Q5VWK5: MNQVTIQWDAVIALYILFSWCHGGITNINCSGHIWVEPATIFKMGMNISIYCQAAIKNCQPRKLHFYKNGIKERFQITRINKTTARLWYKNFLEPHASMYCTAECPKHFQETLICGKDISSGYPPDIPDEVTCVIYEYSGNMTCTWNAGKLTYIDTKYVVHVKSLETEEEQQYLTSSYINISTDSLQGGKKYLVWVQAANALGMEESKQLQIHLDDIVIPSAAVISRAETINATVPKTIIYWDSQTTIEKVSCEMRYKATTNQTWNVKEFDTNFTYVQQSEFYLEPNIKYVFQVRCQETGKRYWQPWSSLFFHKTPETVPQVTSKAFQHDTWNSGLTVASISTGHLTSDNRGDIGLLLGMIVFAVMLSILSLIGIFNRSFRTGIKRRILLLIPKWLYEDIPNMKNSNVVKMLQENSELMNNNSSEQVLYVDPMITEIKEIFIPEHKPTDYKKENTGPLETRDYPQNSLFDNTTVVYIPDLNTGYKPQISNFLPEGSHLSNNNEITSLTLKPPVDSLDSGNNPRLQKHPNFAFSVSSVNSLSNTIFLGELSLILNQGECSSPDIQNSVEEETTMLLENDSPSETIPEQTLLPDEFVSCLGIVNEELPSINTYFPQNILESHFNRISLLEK
UniProt P17936, whole entry, looked up: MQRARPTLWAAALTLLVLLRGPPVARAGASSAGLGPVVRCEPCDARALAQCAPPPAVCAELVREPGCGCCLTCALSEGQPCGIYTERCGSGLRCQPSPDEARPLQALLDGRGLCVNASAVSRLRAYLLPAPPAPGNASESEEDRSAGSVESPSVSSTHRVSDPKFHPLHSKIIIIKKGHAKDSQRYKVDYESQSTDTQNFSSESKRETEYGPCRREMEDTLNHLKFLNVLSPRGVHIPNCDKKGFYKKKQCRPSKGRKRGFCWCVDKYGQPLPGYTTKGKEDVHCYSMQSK
UniProt Q14643, whole entry, looked up: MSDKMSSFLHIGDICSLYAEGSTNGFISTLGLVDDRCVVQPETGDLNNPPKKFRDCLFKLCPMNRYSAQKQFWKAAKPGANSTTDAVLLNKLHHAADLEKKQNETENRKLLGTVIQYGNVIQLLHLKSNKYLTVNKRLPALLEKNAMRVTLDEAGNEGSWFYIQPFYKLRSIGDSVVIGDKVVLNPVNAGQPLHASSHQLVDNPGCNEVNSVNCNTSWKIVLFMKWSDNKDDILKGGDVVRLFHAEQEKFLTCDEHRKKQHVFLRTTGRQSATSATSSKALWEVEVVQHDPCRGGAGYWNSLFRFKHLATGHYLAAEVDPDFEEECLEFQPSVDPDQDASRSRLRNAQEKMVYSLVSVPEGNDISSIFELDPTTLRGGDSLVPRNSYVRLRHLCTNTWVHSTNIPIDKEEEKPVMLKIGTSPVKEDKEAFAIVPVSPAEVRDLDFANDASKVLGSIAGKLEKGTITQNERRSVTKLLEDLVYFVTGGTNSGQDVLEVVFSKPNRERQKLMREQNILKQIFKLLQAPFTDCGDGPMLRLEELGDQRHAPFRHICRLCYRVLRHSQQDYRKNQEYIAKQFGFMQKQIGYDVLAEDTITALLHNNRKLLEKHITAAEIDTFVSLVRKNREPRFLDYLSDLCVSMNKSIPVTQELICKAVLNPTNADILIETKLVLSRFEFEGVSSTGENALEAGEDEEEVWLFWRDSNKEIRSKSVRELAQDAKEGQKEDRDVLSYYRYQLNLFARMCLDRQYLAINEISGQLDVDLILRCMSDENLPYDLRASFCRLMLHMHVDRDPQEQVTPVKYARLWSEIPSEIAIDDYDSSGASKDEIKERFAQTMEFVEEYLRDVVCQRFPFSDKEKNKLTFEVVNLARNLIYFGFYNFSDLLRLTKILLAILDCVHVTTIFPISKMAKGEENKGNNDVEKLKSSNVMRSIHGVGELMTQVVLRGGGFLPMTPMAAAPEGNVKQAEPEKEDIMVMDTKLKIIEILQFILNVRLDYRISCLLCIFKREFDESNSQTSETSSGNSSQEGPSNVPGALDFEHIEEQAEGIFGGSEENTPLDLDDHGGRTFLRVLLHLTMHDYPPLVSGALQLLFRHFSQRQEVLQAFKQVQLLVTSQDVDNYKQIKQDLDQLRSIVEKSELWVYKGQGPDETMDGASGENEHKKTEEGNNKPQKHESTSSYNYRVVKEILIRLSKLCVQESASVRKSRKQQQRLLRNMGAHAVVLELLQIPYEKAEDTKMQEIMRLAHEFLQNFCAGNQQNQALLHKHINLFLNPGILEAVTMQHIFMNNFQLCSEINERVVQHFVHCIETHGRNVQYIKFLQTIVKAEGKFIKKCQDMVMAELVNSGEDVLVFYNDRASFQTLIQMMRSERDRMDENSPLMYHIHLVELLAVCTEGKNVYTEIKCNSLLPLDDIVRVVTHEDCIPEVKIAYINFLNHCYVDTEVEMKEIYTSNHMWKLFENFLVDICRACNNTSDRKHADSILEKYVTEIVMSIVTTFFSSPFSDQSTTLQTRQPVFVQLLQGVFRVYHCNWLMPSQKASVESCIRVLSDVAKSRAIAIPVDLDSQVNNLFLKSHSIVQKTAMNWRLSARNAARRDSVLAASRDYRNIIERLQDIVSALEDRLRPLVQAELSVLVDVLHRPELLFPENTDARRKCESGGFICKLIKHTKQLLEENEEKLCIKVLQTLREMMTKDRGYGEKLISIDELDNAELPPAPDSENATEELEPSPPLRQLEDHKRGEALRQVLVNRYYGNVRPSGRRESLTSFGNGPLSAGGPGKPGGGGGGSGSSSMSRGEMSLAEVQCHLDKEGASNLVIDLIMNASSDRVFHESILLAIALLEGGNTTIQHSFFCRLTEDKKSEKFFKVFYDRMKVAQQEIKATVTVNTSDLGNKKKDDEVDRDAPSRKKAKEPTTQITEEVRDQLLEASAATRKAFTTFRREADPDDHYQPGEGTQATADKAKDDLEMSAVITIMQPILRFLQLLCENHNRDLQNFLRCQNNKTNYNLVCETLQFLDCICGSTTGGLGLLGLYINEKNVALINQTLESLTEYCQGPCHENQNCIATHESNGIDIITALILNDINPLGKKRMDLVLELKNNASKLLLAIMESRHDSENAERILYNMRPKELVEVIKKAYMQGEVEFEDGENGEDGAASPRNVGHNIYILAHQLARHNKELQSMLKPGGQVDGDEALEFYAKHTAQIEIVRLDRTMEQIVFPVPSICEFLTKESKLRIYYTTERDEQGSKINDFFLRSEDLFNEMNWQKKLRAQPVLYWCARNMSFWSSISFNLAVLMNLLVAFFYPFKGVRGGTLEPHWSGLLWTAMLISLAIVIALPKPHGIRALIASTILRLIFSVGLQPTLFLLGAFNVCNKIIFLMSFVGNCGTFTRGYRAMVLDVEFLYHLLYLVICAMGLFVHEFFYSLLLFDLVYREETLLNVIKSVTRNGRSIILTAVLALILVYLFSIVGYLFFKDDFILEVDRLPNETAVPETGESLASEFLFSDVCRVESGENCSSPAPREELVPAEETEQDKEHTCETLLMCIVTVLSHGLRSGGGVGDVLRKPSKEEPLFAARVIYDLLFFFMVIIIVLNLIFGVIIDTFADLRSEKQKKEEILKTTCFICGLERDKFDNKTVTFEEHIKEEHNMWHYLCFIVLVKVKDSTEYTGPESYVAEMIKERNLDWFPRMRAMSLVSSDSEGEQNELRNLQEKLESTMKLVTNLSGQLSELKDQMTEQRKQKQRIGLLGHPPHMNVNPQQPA
UniProt P31785: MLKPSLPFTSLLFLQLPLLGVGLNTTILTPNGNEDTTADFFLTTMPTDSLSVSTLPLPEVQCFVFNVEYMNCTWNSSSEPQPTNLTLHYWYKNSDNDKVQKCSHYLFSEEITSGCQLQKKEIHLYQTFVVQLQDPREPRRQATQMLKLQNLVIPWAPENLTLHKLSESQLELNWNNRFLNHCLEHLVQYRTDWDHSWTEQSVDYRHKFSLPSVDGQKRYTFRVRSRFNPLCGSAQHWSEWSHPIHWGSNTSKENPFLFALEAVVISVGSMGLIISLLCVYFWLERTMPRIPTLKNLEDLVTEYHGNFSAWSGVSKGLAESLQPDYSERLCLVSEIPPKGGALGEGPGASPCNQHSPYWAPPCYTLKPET
UniProt Q96CB8, whole entry, looked up: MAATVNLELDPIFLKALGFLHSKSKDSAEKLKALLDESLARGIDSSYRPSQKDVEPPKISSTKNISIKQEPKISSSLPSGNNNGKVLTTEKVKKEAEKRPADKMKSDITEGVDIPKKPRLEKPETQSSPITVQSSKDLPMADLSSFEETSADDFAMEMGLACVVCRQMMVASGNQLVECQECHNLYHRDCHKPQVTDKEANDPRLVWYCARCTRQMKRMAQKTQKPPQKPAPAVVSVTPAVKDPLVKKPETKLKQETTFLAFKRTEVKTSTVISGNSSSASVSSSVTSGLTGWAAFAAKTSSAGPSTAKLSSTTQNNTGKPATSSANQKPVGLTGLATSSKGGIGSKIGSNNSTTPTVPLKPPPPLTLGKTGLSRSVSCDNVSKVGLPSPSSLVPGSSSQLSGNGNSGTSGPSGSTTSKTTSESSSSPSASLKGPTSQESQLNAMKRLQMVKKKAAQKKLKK
UniProt Q6DN90: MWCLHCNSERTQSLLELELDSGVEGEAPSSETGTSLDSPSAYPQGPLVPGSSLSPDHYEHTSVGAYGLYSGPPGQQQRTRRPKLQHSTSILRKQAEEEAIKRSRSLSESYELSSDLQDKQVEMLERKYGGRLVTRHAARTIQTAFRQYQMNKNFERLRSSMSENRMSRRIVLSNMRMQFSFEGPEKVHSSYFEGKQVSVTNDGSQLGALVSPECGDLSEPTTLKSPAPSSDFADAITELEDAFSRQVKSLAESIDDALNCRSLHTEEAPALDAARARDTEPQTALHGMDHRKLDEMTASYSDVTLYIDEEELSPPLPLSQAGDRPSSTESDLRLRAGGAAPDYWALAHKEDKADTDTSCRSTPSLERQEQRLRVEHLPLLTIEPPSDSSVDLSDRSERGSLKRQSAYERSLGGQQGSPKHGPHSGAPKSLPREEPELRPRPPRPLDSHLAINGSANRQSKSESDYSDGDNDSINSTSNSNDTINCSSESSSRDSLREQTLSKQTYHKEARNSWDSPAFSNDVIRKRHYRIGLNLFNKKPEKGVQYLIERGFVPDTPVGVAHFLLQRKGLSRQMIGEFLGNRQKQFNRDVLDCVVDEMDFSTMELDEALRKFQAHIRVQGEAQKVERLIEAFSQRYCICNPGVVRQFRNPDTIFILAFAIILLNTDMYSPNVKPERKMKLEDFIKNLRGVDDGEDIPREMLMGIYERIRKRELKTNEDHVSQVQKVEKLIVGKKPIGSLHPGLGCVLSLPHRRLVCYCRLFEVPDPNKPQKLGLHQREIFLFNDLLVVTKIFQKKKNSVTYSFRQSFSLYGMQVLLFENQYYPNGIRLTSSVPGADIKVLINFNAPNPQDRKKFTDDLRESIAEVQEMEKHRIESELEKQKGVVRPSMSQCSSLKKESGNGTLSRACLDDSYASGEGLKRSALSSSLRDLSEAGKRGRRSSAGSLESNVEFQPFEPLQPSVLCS
UniProt P22304: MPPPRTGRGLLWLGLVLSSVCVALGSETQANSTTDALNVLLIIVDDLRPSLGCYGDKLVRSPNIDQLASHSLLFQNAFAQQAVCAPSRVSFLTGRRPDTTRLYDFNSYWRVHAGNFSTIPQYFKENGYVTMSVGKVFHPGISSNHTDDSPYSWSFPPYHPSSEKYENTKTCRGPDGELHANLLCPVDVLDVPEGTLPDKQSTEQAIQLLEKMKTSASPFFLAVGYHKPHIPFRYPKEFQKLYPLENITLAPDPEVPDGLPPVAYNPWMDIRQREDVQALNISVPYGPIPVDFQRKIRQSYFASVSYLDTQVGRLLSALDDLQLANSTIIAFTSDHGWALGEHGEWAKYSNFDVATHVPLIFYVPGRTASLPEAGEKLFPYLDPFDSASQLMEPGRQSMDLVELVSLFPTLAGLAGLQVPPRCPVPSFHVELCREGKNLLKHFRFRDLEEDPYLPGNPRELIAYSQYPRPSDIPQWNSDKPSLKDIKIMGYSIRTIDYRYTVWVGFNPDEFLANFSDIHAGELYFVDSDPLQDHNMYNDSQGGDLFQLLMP
UniProt P24593, whole entry, looked up: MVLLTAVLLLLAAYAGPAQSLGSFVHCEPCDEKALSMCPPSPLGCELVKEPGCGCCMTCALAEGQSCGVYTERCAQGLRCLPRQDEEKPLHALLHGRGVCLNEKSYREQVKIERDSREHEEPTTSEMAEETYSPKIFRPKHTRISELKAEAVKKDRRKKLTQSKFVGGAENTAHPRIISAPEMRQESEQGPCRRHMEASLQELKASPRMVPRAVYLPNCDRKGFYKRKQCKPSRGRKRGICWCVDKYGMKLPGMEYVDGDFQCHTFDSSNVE
UniProt P24592: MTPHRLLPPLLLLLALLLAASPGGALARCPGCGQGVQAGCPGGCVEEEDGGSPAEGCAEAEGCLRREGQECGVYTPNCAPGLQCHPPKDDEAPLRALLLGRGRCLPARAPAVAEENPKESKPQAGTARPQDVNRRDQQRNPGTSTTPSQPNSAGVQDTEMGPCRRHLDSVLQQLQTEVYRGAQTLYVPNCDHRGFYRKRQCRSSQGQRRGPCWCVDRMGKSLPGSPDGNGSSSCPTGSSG

Key:
Test in all cases: log2 fold change, soluble protein after heating vs DMSO (PISA); higher = thermal stabilisation; K562 cells, 10 uM, 30 min; active = over 0.2 and 3.5 SD of the protein, either way, in both replicates (recomputed)
[1] = compound: CN1C2=C(C3=C1C(=O)N(N=C3)CC4=CC(=CC=C4)N)SC(=C2)S(=O)C
How it was run: (§1)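 K562 cells at 2×10^6 cells/mL were exposed to 10 μM compound for 30 min, then aliquots were heated for 3 min across 48°C-58°C, pooled, and extracted in PBS containing 0.5% NP-40 at 4°C. The supernatant after 21,000xg for 90 min was taken as soluble protein and measured by TMTpro 16plex LC-MS/MS with channel sums equalised. Thermal stability is reported relative to control samples, with values from duplicates. Fold changes are given on a log2 scale.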

saracatinib = compound: CN1CCN(CCOc2cc(OC3CCOCC3)c3c(Nc4c(Cl)ccc5c4OCO5)ncnc3c2)CC1 [saracatinib]
How it was run: as §1

[2] = compound: CNc1nc(-c2ccc3c(N)n[nH]c3c2)cc(N2C[C@@H](C(=O)NC3CCCCC3)CC[C@H]2C)n1
How it was run: as §1

[3] = compound: CN(C)CC(=O)Nc1ccc2[nH]c(=O)c3ccccc3c2c1
How it was run: as §1

rosiglitazone = compound: CN(CCOC1=CC=C(C=C1)C[C@H]2C(=O)NC(=O)S2)C3=CC=CC=N3 (racemic) [rosiglitazone]
How it was run: as §1

alvocidib = compound: CN1CC[C@H](c2c(O)cc(O)c3c(=O)cc(-c4ccccc4Cl)oc23)[C@H](O)C1 [alvocidib]
How it was run: as §1

Tubastatin A = compound: CN1CCc2c(c3ccccc3n2Cc2ccc(C(=O)NO)cc2)C1 [Tubastatin A]
How it was run: as §1

defactinib = compound: CNC(=O)c1ccc(Nc2ncc(C(F)(F)F)c(NCc3nccnc3N(C)S(C)(=O)=O)n2)cc1 [defactinib]
How it was run: as §1

[4] = compound: COC(=O)[C@H](CCSC)NC(=O)C1=C(C=C(C=C1)NC[C@H](CS)N)C2=CC=CC=C2
How it was run: as §1

sotrastaurin = compound: CN1CCN(c2nc(C3=C(c4c[nH]c5ccccc45)C(=O)NC3=O)c3ccccc3n2)CC1 [sotrastaurin]
How it was run: as §1

volasertib = compound: CC[C@@H]1C(=O)N(C)c2cnc(Nc3ccc(C(=O)N[C@H]4CC[C@H](N5CCN(CC6CC6)CC5)CC4)cc3OC)nc2N1C(C)C [volasertib]
How it was run: as §1

epoxomicin = compound: CC[C@H](C)[C@@H](C(=O)N[C@@H]([C@@H](C)O)C(=O)N[C@@H](CC(C)C)C(=O)[C@]1(CO1)C)NC(=O)[C@H]([C@@H](C)CC)N(C)C(=O)C [epoxomicin]
How it was run: as §1

[5] = compound: CCn1cc(-c2ccnc3[nH]c(-c4cccc(CN(C)C)c4)cc23)c(-c2ccc(NC(=O)N(C)C)cc2)n1
How it was run: as §1

[6] = compound: CN1CCC(CNc2ccc3ncc(-c4cccc(OC(F)(F)F)c4)n3n2)CC1
How it was run: as §1

[7] = compound: CCn1c(C(=O)N(C2CC2)C2CC2)cc2c3c(ncn3C)c(Nc3cc(C)n(C)n3)nc21
How it was run: as §1

[8] = compound: CNC(=O)C1=CC=CC=C1NC2=NC(=NC=C2Cl)NC3=C(C=C(C=C3)N4CCOCC4)OC
How it was run: as §1

[9] = compound: CC[C@H](C)N1C=C(C2=C(C=C(C=C21)C3=CN=C(C=C3)N4CCNCC4)C(=O)NCC5=C(C=C(NC5=O)C)C)C
How it was run: as §1

Measured: log2 fold change

ISL2 (UniProt H0YN25)
inactive: [1] 0.061 | saracatinib -0.157 | [2] 0.07

IL23R (UniProt Q5VWK5)
inactive: [3] -0.179 | rosiglitazone 0.078 | [1] 0.047 | saracatinib -0.427 | alvocidib 0.233 | Tubastatin A 0.003 | defactinib 0.15 | [2] 0.151 | [4] -0.113

IL17RA (UniProt Q96F46)
inactive: sotrastaurin 0.196 | Tubastatin A -0.056

IGFBP3 isoform 2 (UniProt P17936)
inactive: volasertib -0.507 | epoxomicin -0.251 | [5] 0.075 | [3] -0.238 | [1] 0.199 | [6] -0.555 | saracatinib -0.092 | sotrastaurin 0.245 | Tubastatin A 0.001 | defactinib 0.17 | [2] -0.08 | [4] 0.045

ITPR1 (UniProt Q14643)
inactive: epoxomicin -0.072 | [7] -0.059 | rosiglitazone 0.09 | alvocidib -0.011 | [8] -0.003

IL2RG (UniProt P31785)
inactive: [9] -0.254 | epoxomicin -0.042 | [5] 0.031 | [3] -0.007 | [6] -0.259 | alvocidib 0.091 | Tubastatin A -0.011 | defactinib 0.023 | [4] 0.039

INTS12 (UniProt Q96CB8)
inactive: [3] -0.071 | [1] 0.152 | saracatinib -0.101 | alvocidib 0.021 | Tubastatin A 0.149 | defactinib -0.224 | [2] -0.035 | [4] 0.005

Reprinted at random: 2 entries already listed
IL17RA (UniProt Q96F46)
inactive: sotrastaurin 0.196 | Tubastatin A -0.056

IL23R (UniProt Q5VWK5)
inactive: [3] -0.179 | rosiglitazone 0.078 | [1] 0.047 | saracatinib -0.427 | alvocidib 0.233 | Tubastatin A 0.003 | defactinib 0.15 | [2] 0.151 | [4] -0.113

Additional results follow:

IQSEC1 (UniProt Q6DN90)
inactive: sotrastaurin 0.057

IDS (UniProt P22304)
inactive: volasertib -0.132 | [5] 0.038 | [6] -0.291

IGFBP5 (UniProt P24593)
inactive: epoxomicin -0.298 | [7] -0.088 | [3] -0.039 | sotrastaurin 0.228 | Tubastatin A -0.183 | [8] -0.032 | defactinib 0.249 | [4] 0.065

IKZF1 (UniProt R9R4D9)
inactive: volasertib 0.085 | [5] -0.247 | [1] 0.229 | [6] 0.05 | saracatinib 0.019 | Tubastatin A -0.158 | [2] -0.038

IGF2 isoform 3 (UniProt P01344)
inactive: [3] -0.218 | [1] 0.135 | saracatinib 0.148 | [8] -0.033 | defactinib 0.007 | [2] -0.105 | [4] 0.006

ITFG2 (UniProt Q969R8)
inactive: volasertib -0.151 | [9] 0.045 | epoxomicin 0.236 | [7] -0.017 | [3] -0.011 | rosiglitazone -0.198 | [1] -0.158 | saracatinib -0.034 | sotrastaurin 0.051 | alvocidib -0.086 | Tubastatin A -0.016 | [8] 0.026 | defactinib -0.041 | [2] 0.003 | [4] -0.001

IGFBP6 (UniProt P24592)
inactive: [3] -0.186 | [1] 0.107 | saracatinib 0.011 | defactinib 0.144 | [2] -0.094 | [4] 0.055

INTS5 (UniProt Q6P9B9)
inactive: volasertib -0.152 | [9] 0.049 | epoxomicin 0.052 | [3] -0.003 | [1] -0.133 | saracatinib -0.051 | sotrastaurin -0.06 | Tubastatin A -0.133 | [8] -0.086 | defactinib -0.058 | [2] 0.044 | [4] 0
